This note sets out measurements from ChEMBL document CHEMBL1144888, “Synthesis, structure-activity relationship, and evaluation of SR141716 analogues: development of central cannabinoid receptor ligands with lower lipophilicity” (J Med Chem, 2003).

The chains behind the UniProt entries cited, without tags or fusion partners.
UniProt P20272, whole entry: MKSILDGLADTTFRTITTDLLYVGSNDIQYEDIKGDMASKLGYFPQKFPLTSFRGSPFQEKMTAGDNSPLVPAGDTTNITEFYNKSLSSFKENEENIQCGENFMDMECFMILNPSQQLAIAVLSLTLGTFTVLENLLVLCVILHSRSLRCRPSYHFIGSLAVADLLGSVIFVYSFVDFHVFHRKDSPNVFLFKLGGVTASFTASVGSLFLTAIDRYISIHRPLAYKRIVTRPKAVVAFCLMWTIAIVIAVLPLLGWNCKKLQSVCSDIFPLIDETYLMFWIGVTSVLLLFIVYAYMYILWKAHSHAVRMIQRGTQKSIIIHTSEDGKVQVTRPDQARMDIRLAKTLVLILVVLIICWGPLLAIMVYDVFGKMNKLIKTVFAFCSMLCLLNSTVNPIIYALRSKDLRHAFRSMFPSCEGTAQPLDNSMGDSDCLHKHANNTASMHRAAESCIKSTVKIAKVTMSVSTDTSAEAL

The assay deals with Cannabinoid receptor 1 (Rattus norvegicus, UniProt P20272).

In general, Ki refers to a measure of affinity in units of concentration, obtained from inhibition or displacement. For `Cc1c(C(=O)NN2CCCCC2)nn(-c2ccc(Cl)cc2Cl)c1-c1ccc(I)cc1`, the Ki turned out to be 0.6 nM.
